Source: article doi:10.1101/220111
These are yes or no findings as the source states them, for the method shown. In cells and extracts the contact can be indirect. Some results given as binding are weak or reduced against the parent protein; the word gives no strength. Tags and fused reporters may be left off the sequences shown. Blank lines part the entries; values can stand above or below the molecule they belong to.

The chains behind the UniProt entries cited, without tags or fusion partners.
UniProt E9P860: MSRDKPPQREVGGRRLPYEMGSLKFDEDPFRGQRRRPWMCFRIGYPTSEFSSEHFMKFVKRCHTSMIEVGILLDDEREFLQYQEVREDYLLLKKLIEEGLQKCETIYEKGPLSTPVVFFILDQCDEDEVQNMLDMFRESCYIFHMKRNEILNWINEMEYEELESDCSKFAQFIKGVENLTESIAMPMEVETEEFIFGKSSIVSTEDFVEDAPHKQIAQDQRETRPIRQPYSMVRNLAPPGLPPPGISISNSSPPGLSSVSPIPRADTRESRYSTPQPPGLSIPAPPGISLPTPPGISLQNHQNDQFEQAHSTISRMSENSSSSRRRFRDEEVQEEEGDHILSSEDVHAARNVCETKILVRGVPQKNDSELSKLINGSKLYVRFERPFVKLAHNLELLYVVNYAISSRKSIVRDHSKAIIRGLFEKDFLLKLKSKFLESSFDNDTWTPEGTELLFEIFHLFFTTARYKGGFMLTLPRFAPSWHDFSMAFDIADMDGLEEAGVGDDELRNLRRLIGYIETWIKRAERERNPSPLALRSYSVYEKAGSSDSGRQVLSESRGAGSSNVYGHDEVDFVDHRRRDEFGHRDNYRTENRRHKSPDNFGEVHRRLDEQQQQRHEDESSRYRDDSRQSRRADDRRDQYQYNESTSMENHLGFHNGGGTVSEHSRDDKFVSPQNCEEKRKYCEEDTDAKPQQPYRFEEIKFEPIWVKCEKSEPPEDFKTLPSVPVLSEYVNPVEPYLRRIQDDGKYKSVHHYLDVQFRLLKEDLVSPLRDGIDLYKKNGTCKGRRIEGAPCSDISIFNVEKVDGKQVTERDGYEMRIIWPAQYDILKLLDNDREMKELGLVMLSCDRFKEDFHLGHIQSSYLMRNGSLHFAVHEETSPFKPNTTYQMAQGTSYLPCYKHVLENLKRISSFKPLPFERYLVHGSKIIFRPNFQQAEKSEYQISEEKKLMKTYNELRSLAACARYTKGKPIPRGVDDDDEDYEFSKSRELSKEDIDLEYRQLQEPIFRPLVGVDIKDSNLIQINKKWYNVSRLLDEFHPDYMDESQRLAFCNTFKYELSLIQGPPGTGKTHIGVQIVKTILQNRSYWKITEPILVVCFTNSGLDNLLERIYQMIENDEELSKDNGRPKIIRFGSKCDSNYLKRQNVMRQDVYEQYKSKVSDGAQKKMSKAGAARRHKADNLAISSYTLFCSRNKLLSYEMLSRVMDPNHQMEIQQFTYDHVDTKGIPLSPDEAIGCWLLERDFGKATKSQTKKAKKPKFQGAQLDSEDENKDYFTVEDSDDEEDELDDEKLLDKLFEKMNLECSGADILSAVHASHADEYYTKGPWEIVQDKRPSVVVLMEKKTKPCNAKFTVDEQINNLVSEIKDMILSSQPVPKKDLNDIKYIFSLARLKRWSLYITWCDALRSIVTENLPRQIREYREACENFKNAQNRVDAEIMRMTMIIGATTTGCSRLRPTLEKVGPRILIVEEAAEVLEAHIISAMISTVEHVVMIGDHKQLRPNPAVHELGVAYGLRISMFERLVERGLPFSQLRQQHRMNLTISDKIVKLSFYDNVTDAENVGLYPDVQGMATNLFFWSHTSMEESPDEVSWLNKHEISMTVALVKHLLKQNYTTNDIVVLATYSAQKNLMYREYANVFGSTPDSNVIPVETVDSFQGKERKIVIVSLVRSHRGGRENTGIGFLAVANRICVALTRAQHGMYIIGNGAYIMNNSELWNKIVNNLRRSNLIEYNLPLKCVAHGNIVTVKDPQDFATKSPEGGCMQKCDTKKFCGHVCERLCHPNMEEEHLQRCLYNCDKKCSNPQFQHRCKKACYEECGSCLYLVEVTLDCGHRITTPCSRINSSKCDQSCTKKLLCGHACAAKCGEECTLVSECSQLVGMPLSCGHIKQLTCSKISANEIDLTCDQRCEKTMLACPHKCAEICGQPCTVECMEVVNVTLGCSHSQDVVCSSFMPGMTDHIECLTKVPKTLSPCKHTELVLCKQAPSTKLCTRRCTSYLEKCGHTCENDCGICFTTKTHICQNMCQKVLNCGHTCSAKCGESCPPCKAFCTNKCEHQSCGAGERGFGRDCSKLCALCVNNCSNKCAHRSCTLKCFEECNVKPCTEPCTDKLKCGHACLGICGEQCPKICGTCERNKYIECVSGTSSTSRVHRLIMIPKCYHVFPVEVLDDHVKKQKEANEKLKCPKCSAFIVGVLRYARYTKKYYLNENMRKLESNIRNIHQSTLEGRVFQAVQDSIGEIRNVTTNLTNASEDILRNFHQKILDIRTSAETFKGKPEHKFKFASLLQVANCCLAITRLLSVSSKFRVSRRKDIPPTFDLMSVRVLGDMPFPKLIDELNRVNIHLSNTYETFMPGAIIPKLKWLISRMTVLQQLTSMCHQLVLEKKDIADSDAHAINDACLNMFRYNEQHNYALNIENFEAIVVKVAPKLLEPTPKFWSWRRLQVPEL

Biological target: T1, 3xFLAG∷WAGO-4 (C. elegans) (UniProt O62275)
T1 sequence: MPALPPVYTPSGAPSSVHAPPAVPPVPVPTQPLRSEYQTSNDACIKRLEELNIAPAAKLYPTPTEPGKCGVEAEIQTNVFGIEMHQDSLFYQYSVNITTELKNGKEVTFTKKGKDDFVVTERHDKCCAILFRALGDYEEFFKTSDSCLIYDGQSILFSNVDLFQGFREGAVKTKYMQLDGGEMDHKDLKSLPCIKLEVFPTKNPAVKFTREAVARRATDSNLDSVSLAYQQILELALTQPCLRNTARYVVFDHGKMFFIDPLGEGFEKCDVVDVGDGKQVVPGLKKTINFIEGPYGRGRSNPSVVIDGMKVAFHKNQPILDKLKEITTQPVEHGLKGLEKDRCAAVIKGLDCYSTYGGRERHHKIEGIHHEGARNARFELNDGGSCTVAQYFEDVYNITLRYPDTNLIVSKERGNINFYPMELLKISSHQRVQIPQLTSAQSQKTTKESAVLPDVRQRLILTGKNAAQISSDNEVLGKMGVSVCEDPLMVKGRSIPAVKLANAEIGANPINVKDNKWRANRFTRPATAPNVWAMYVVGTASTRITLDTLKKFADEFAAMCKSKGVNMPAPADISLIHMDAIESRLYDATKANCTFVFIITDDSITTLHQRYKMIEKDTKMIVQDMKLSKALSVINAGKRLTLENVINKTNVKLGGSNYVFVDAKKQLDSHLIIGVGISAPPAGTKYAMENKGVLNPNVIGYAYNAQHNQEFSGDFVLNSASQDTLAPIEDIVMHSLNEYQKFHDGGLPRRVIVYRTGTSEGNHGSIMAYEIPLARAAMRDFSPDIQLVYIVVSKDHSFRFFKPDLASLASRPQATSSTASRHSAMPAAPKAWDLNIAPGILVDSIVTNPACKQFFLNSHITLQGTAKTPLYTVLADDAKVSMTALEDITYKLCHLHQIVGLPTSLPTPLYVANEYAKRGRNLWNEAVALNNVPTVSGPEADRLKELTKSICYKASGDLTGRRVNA
Experiment: co-IP

binding: binds
Molecule: HA∷ZNFX-1 (from UniProt E9P860 1-2443)

binding: no binding
B1: HA∷HRDE-1 (protein, UniProt Q09249 1-1032)
chain: MADLLDKIMGSSSSNRIPKRDNRMNQDKDEPTSKRSAPMFSTPKSTTPIGRDSFATMDTMNVQMNMFPVDIKDMPHKIQRFQVDVIVCSSNGKQINANLGVLAAKGDVNSHNRRLAQYYIMRTVHDKLLVKFSGKSHHFLAYDCAATLYLPEGVYTGDDQEEVTLTIDDFPKEEWKFVSKLSRRKDDSYLVVLKPAGFVYTQGEVAQEEANRMELTRIIEIVTSQKLNNEDYLQFGNATFPRLSPPHSEPDAISEIRSGFAKVSRLSQNGGGKAFMTVDTKISPFYKDTSVIKFSSNKLSEMKGGGGGRGGYGRSDSRDSRGGYRGGRSDSRDFRGVYGNRGGNDRYRDESRGRRDMYDSRRDSGSSNGADYSPSDAAELEHAFGERGNTKRCIEEALKGLDVECTHLKGNLIRVSSIAENNAENTSFMMKDDKGEREVTVAEYFLLQYNIKLKYPRLPLVVSKRFKHESFFPMELLRIAPGQRIKVNKMSPTVQSAMTGRNASMPQHHVKLVQDILRDNLKLEQNKYMDAFGIKLMSTEPIQMTAKLLPPAQIKFKGQTYMPDMSRPAFRTQDKFVEPARIRKIGIVVFDNCIQMRQAEDFCDKLSNFCRDNGITVEKDSRDWSIRELNSSDSVAIQNLMKKWLDDRVDILVGIAREKKPDVHDILKYFEESIGLQTIQLCQQTVDKMMGGQGGRQTIDNVMRKFNLKCGGTNFFVEIPNAVRGKAVCSNNETLRKKLLEHVQFIGFEISHGASRTLFDRSRSQMDGEPSVVGVSYSLTNSTQLGGFTYLQTQKEYKLQKLDEFFPKCVRSYKEHSKTLPTRIVIYRVGAGEGNFNRVKEEVEEMRRTFDKIQPGYRPHLVVIIAQRASHARVFPSCISGNRATDQNIPSGTCVENVLTSYGYDEFILSSQTPLIGTVRPCKYTILVNDAKWSKNELMHLTYFRAFGHQVSYQPPSVPDVLYAAENLAKRGRNNYKIHQRYVNLQAVENRIIKDHSELINEDMREELAAAIVDEMSVAMNGMTIPKRNFWA
